From the supplement of paper PMC6411743 come the findings set out here.

± gives the standard deviation of the averaged measurements. The list shows a part of the results, in another mix than the full data. Small differences around the control level are noise.

Compound in the test: Nc1ncnc2c1ncn2[C@@H]1O[C@H](COP(=O)(O)OP(=O)(O)OP(=O)(O)O)[C@@H](O)[C@H]1O [adenosine triphosphate]
As to the kind of experiment: NP40-soluble protein abundance relative to vehicle (solubility fold change) (ratio); higher = more soluble protein in presence of ATP. The gist of the method: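 Values are fold changes against the detergent-processed vehicle, based on vsn-normalised intensities. Jurkat crude lysate was treated at eight concentrations from 0.1 to 10 mM (10 min at room temperature, then 3 min at 37 °C), solubilised with 0.8% NP40 and benzonase, ultracentrifuged and analysed by TMT-labelled LC-MS/MS over three independent experiments.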

Consider “C9JYM0 and related entries (UniProt O75817)”, for which the NP40-soluble protein abundance runs as follows: (concentration: 0.1mM) 1.19 ± 0.23; (concentration: 0.5mM) 1.01 ± 0.13.
For the target “B1AQP1 and related entries (UniProt P22415)”, the NP40-soluble protein abundance reads like this: (concentration: 0.1mM) 0.972 ± 0.066; (concentration: 0.5mM) 0.95 ± 0.025.
Regarding “D6RA71 and related entries (UniProt P78317)”, the NP40-soluble protein abundance (concentration: 0.1mM) came to 0.938 ± 0.075 and the NP40-soluble protein abundance (concentration: 0.5mM) amounted to 0.98 ± 0.015.
In the case of “B5MCW3 and related entries (UniProt Q9H0E9)”, the NP40-soluble protein abundance turned out to be 0.985 ± 0.041 (concentration: 0.1mM) and 0.981 ± 0.062 (concentration: 0.5mM).
In the case of ILVBL (UniProt A1L0T0), the NP40-soluble protein abundance is, setting by setting: (concentration: 0.1mM) 0.987 ± 0.022; (concentration: 0.5mM) 1 ± 0.045.
For the target “B8ZZN6 and related entries (UniProt P63165)”, the NP40-soluble protein abundance is 0.856 ± 0.099 (concentration: 0.1mM) and 0.852 ± 0.14 (concentration: 0.5mM).
On to “A0A0U1RR06|A6NM71 and related entries (UniProt Q9Y484)”, for which the NP40-soluble protein abundance runs as follows: (concentration: 0.1mM) 1.09 ± 0.17; (concentration: 0.5mM) 1.03 ± 0.017.
On the same counts, the results for “A6NIW2 and related entries (UniProt Q5JSL3)” are 1.06 ± 0.05 and 1.06 ± 0.061.
For “C9JCC6 and related entries (UniProt Q14919)” the same measures were 0.823 ± 0.27 and 0.792 ± 0.41.
For “A2A2V1 and related entries (UniProt P04156+A2A2V1)” the same measures were 1.015 ± 0.0053 and 0.863 ± 0.11.
For “D6R9Q7 and related entries (UniProt Q8NBW4)”, the NP40-soluble protein abundance reads like this: (concentration: 0.1mM) 1 ± 0.036; (concentration: 0.5mM) 0.942 ± 0.097.
For “B0QY95 and related entries (UniProt Q9NQG6+B0QY95)” the same measures were 1.02 ± 0.025 and 1 ± 0.014.
On the same counts, the results for “B4DI03 and related entries (UniProt Q9BY50)” are 1.02 ± 0.11 and 1.03 ± 0.033.
Regarding “B4DL54 and related entries (UniProt Q8WUH1)”, the NP40-soluble protein abundance was 1.04 ± 0.063 (concentration: 0.1mM) and 1.03 ± 0.087 (concentration: 0.5mM).
On the same counts, the results for “B3KUS5 and related entries (UniProt Q70CQ3)” are 1.02 ± 0.17 and 1.04 ± 0.066.
Take A0AVT1: the NP40-soluble protein abundance (concentration: 0.1mM) was 1.06 ± 0.079 and the NP40-soluble protein abundance (concentration: 0.5mM) stood at 1.06 ± 0.073.
